We go through one molecule from paper PMC7066184.

The assay deals with HA-tagged Ub^KEKS (human). Kind of assay: affinity purification with mass spectrometry; HA antibody (12CA5) immunoprecipitation from triple-SILAC HeLa cells (control, HA-Ub, HA-Ub^KEKS), on-bead trypsin digestion; lysis in high-salt buffer or in denaturing buffer (2% SDS, 95 °C); which of the two gave the hits of Fig. 3 is not told.

Results are given in words; binding and its absence hold for the method and conditions named. In cells and extracts the contact can be indirect. A yes stands for co-enrichment or nearness to the bait. Other partners may have been found.

B1: RNF138 (enzyme, UniProt Q8WVD3 1-245)
chain: MAEDLSAATSYTEDDFYCPVCQEVLKTPVRTTACQHVFCRKCFLTAMRESGAHCPLCRGNVTRRERACPERALDLENIMRKFSGSCRCCAKQIKFYRMRHHYKSCKKYQDEYGVSSIIPNFQISQDSVGNSNRSETSTSDNTETYQENTSSSGHPTFKCPLCQESNFTRQRLLDHCNSNHLFQIVPVTCPICVSLPWGDPSQITRNFVSHLNQRHQFDYGEFVNLQLDEETQYQTAVEESFQVNI
With B1, the binding result is given as “binds”.
